Results deposited as PubChem BioAssay AID1224828 (NIAID, 2016)

- Assay: 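Knock-downs that increase or decrease LPS-induced p65 nuclear translocation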 (primary screen)
- System: mouse RAW264.7 G9 macrophage reporter cells (GFP-p65, Tnf promoter-mCherry)
- Reagents: siRNA pool against mouse genes, 100 nM
- Duration: 2 days siRNA transfection, then 40 min LPS before fixation
- Challenge: LPS (Salmonella minnesota R595) at 10 ng/ml
- Measurement: 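Microscopy ratio of nuclear to perinuclear-ring GFP-p65 signal, scaled to the plate median; gene score is the average of two replicate robust z-scores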
- Reading the numbers: p65 translocation robust z-score: higher = more nuclear NF-kappaB p65 after LPS than the plate median; nuclear/cytoplasmic p65 ratio: higher = more nuclear NF-kappaB p65
- Active means: 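Called active when z exceeds 3.3 or falls under -1.56 (median of Tlr4 controls), giving activity score of at least 50; no calls for control wells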
- Calls: active = hit (p65 shift raised or lowered); inactive = no clear change
This is a random part of about 17,000 reagents tested. 762 of them (4.5%) count as active. 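Active calls include both raised and lowered p65 entry, mostly lowered; wells with fewer than 50 cells lack a z-score.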 Raw values vary from plate to plate and are shown uncorrected.

| gene | PubChem SID | p65 translocation robust z-score | nuclear/cytoplasmic p65 ratio, rep 1 | nuclear/cytoplasmic p65 ratio, rep 2 | low cell count flag | outcome |
| --- | --- | --- | --- | --- | --- | --- |
| Crtac1 (cartilage acidic protein 1) | SID315474636 | -1.25 | 1.33 | 1.64 | enough cells to score | inactive |
| Apbb1 (amyloid beta precursor protein binding family B member 1) | SID315465449 | 0.14 | 1.69 | 1.59 | enough cells to score | inactive |
| Mdh1b (malate dehydrogenase 1B, NAD (soluble)) | SID315475359 | -0.04 | 1.38 | 1.41 | enough cells to score | inactive |
| Tmem82 (transmembrane protein 82) | SID315477833 | -1.13 | 1.55 | 1.37 | enough cells to score | inactive |
| Zfp786 (zinc finger protein 786) | SID315481586 | 0.11 | 1.41 | 1.53 | enough cells to score | inactive |
| Lrrc19 (leucine rich repeat containing 19) | SID315476203 | 0.79 | 1.52 | 1.67 | enough cells to score | inactive |
| Or52e3 (olfactory receptor family 52 subfamily E member 3) | SID315479948 | -1.15 | 1.29 | 1.22 | enough cells to score | inactive |
| Id2 (inhibitor of DNA binding 2) | SID315467366 | 0.14 | 1.44 | 1.41 | enough cells to score | inactive |
| Tfdp2 (transcription factor Dp 2) | SID315477695 | -0.52 | 1.55 | 1.52 | enough cells to score | inactive |
| Sprr2j-ps (small proline-rich protein 2J, pseudogene) | SID315469449 | 1.17 | 1.6 | 1.36 | enough cells to score | inactive |
| Tmc7 (transmembrane channel-like gene family 7) | SID315477614 | – | 1.5 | 1.4 | fewer than 50 cells per well; well left out of scoring | inactive |
| Hsd3b2 | SID315467315 | 0.14 | 1.6 | 1.42 | enough cells to score | inactive |
| Mypn (myopalladin) | SID315473640 | -1.78 | 1.31 | 1.19 | enough cells to score | active |
| Unc5a (unc-5 netrin receptor A) | SID315476603 | – | 1.3 | 1.28 | fewer than 50 cells per well; well left out of scoring | inactive |
| Tcl1b2 (T cell leukemia/lymphoma 1B, 2) | SID315470594 | – | 1.24 | 0 | fewer than 50 cells per well; well left out of scoring | inactive |

The list goes on; the last 2 above are carried over.
| gene | PubChem SID | p65 translocation robust z-score | nuclear/cytoplasmic p65 ratio, rep 1 | nuclear/cytoplasmic p65 ratio, rep 2 | low cell count flag | outcome |
| --- | --- | --- | --- | --- | --- | --- |
| Unc5a (unc-5 netrin receptor A) | SID315476603 | – | 1.3 | 1.28 | fewer than 50 cells per well; well left out of scoring | inactive |
| Tcl1b2 (T cell leukemia/lymphoma 1B, 2) | SID315470594 | – | 1.24 | 0 | fewer than 50 cells per well; well left out of scoring | inactive |
| Phf7 (PHD finger protein 7) | SID315474345 | – | 1.53 | 1.11 | fewer than 50 cells per well; well left out of scoring | inactive |
| Coq7 (demethyl-Q 7) | SID315466076 | 0.92 | 1.78 | 1.86 | enough cells to score | inactive |
| Tmem186 (transmembrane protein 186) | SID315472587 | – | 0.925 | 1.15 | fewer than 50 cells per well; well left out of scoring | inactive |
| Ralyl (RALY RNA binding protein-like) | SID315475405 | -0.33 | 1.38 | 1.51 | enough cells to score | inactive |
| Tgm5 (transglutaminase 5) | SID315474888 | – | 1.32 | 1.18 | fewer than 50 cells per well; well left out of scoring | inactive |
| Maea (macrophage erythroblast attacher) | SID315471941 | 0.97 | 1.83 | 1.72 | enough cells to score | inactive |
| Adcy3 (adenylate cyclase 3) | SID315476417 | -1.32 | 1.37 | 1.52 | enough cells to score | inactive |
| Or2y1g (olfactory receptor family 2 subfamily Y member 1G) | SID315480143 | -1.68 | 1.32 | 1.23 | enough cells to score | active |
| Snn (stannin) | SID315469359 | 0.4 | 1.59 | 1.63 | enough cells to score | inactive |
